These are yes or no findings as the source states them, for the method shown.

This assay has as its target Ixodes scapularis Salp15 fragment 23-135 (refolded, folded form) (Ixodes scapularis) (UniProt Q95WZ4). The assay can be described thus: SEC-MALS; Superdex 75 10/300 GL, 25 °C, 20 mM Tris-HCl pH 7.5, 300 mM NaCl, 0.5 mM TCEP, 0.03% NaN3; 100 µL of Salp15 at 1.9 g/L injected, 0.5 mL/min; both purified. For orientation: Size exclusion chromatography separates by hydrodynamic size, large species first.

For the substance “Ixodes scapularis Salp15 fragment 23-135 (refolded, folded form) (from UniProt Q95WZ4 23-135)”, the binding result is “no binding (tested: 1.9 g/L)”.

The values are drawn from publication PMC8954417.
